{
  "sequences": {"note": "Amino acid sequences for entries named in this document (tags omitted). A change or cut given only in a name is not applied to a line headed by its entry.", "UniProt Q00987": "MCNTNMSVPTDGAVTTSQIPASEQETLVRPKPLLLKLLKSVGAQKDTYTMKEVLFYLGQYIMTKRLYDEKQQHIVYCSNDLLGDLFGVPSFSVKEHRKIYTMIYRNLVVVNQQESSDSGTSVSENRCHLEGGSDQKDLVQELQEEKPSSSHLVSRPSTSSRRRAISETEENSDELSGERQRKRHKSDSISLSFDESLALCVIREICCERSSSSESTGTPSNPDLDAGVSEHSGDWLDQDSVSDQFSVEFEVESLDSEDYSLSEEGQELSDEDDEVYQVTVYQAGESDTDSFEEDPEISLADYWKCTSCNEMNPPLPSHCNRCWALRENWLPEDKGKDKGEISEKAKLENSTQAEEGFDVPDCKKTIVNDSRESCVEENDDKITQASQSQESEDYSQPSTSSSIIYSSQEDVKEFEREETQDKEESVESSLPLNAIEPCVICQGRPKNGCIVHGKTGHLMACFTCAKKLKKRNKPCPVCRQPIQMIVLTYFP", "UniProt P12504": "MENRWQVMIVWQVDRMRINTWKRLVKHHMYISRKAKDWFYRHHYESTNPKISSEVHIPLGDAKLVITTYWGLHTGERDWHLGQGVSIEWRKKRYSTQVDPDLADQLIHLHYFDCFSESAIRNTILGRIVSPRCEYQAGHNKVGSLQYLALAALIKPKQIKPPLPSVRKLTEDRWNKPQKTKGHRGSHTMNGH"},
  "source": "paper PMC2629459",
  "key": {"[1]": {"target": "HA-tagged MDM2 mutant deleted in the Zn Finger domain (UniProt Q00987)", "assay": "co-IP; HEK293T cotransfected with HA-tagged MDM2 Wt or deletion mutants and pNL-A1, MG132 for 6 hrs; immunoprecipitated with anti-HA mAb, blotted with anti-Vif mAb"}, "[2]": {"target": "HA-tagged MDM2 mutant deleted in the acidic domain (UniProt Q00987)", "assay": "co-IP; HEK293T cotransfected with HA-tagged MDM2 Wt or deletion mutants and pNL-A1, MG132 for 6 hrs; immunoprecipitated with anti-HA mAb, blotted with anti-Vif mAb"}},
  "note": "Results are given in words; binding and its absence hold for the method and conditions named. In cells and extracts the contact can be indirect.",
  "data": [
    {"substance": "HIV-1 Vif expressed from the subgenomic vector pNL-A1 (from UniProt P12504 1-192)", "values": [
      {"measurement": "binding", "setting": "[1]", "value": "no binding"},
      {"measurement": "binding", "setting": "[2]", "value": "no binding"}
    ]}
  ]
}
